Experimental findings from PMC10474464, “The mRNA binding-mediated self-regulatory function of small heat shock protein IbpA in γ-proteobacteria is conferred by a conserved arginine” (The Journal of Biological Chemistry, 2023) are described below.

Results are given in words; binding and its absence hold for the method and conditions named. Some results given as binding are weak or reduced against the parent protein; the word gives no strength.

Assay [1] has as its target firefly luciferase, heat-denatured [luciferase: P08659]. Nature of the assay: co-sedimentation; sucrose density gradient centrifugation: purified IbpA (12 μM) and luciferase (3 μM) in buffer F mixed and incubated at 50 °C for 30 min, 10% to 50% (w/v) sucrose gradient; SDS-PAGE and CBB staining; both purified.
In assay [2] the target is Cedecea neteri IbpA, wild type (Cedecea neteri). Briefly: sucrose density gradient centrifugation; purified IbpA (3 μM, dimeric units) alone in buffer F (50 mM Hepes-KOH pH 7.6, 0.1 M KCl, 5 mM DTT, 20 mM Mg-acetate) on a 10% to 30% (w/v) sucrose gradient, SW 41 Ti, 35,000 rpm, 4 °C, 80 min; fractions by SDS-PAGE with Western blot (anti-IbpA) or CBB staining; oligomeric state; both purified.

For “Cedecea neteri IbpA, wild type (from UniProt A0A089Q2Q3 1-137)”, the binding result in assay [1] is “binds”.

B1: Escherichia coli inclusion body-associated protein A, wild type (natural protein, UniProt P0C054 1-137, looked up)
chain: MRNFDLSPLYRSAIGFDRLFNHLENNQSQSNGGYPPYNVELVDENHYRIAIAVAGFAESELEITAQDNLLVVKGAHADEQKERTYLYQGIAERNFERKFQLAENIHVRGANLVNGLLYIDLERVIPEAKKPRRIEIN
notes: Small heat shock protein IbpA of Escherichia coli, expressed from pCA24N-ibpAEc; also called IbpAEc; IbpAEc-WT; source: E. coli BW25113ΔAB, overexpressed (0.5 mM IPTG), purified (anion exchange chromatography)
B1: the binding result in assay [1] is on record as “binds”.

B2: Cedecea neteri IbpA, wild type (protein, UniProt A0A089Q2Q3 1-137)
chain: MRNFDLSPLYRSAIGFDRLFNLLESNQSQSNGGYPPYNVELVDENHYRIAIAVAGFAESELDITAQDNLLIVKGAHADEQQERTYLYQGIAERNFERKFQLAENIHVRGASLVNGLLYIELEREIPESMKPRRIEIN
For the molecule B2, the binding entry in assay [2] is listed as “binds”.

B3: Escherichia coli inclusion body-associated protein A, R93A mutant (natural protein, UniProt P0C054 1-137, looked up)
chain: MRNFDLSPLYRSAIGFDRLFNHLENNQSQSNGGYPPYNVELVDENHYRIAIAVAGFAESELEITAQDNLLVVKGAHADEQKERTYLYQGIAEANFERKFQLAENIHVRGANLVNGLLYIDLERVIPEAKKPRRIEIN
notes: Small heat shock protein IbpA of Escherichia coli with R93A, made by site-directed mutagenesis of pCA24N-ibpAEc; also called IbpAEc-R93A; IbpA-R93A; source: E. coli BW25113ΔAB, overexpressed (0.5 mM IPTG), purified (anion exchange chromatography)
On to B3, for which, in assay [1], the binding result is listed as “binds”.
